In ChEMBL document CHEMBL3286171 (Eur J Med Chem, 2014):

What was measured:
[1] = Effective permeability across human intestinal membrane by Ussing chamber technique
[2] = Apparent permeability in MDCK cells; conditions: dog
[3] = Permeability in human Caco2 cells; conditions: Caco-2

Compound `COc1cc2c(cc1OC)C(=O)C(CC1CCN(Cc3ccccc3)CC1)C2` (stereo not drawn) [DONEPEZIL] has a Papp [1] of 669 ×10⁻⁶ cm/s, a Papp [2] of 30.6 ×10⁻⁶ cm/s and a Papp [3] of 5.55 ×10⁻⁶ cm/s.
